Experimental data as given in patent publication US11813267B2, “DNA-PK inhibitors” (Vertex Pharmaceuticals Incorporated, priority 2013, dated 2023).
Some results were stated once for a whole list of compounds, not compound by compound.

Sequences of proteins named here, by UniProt entry; tags and fusion partners are left off.
UniProt P78527, whole entry: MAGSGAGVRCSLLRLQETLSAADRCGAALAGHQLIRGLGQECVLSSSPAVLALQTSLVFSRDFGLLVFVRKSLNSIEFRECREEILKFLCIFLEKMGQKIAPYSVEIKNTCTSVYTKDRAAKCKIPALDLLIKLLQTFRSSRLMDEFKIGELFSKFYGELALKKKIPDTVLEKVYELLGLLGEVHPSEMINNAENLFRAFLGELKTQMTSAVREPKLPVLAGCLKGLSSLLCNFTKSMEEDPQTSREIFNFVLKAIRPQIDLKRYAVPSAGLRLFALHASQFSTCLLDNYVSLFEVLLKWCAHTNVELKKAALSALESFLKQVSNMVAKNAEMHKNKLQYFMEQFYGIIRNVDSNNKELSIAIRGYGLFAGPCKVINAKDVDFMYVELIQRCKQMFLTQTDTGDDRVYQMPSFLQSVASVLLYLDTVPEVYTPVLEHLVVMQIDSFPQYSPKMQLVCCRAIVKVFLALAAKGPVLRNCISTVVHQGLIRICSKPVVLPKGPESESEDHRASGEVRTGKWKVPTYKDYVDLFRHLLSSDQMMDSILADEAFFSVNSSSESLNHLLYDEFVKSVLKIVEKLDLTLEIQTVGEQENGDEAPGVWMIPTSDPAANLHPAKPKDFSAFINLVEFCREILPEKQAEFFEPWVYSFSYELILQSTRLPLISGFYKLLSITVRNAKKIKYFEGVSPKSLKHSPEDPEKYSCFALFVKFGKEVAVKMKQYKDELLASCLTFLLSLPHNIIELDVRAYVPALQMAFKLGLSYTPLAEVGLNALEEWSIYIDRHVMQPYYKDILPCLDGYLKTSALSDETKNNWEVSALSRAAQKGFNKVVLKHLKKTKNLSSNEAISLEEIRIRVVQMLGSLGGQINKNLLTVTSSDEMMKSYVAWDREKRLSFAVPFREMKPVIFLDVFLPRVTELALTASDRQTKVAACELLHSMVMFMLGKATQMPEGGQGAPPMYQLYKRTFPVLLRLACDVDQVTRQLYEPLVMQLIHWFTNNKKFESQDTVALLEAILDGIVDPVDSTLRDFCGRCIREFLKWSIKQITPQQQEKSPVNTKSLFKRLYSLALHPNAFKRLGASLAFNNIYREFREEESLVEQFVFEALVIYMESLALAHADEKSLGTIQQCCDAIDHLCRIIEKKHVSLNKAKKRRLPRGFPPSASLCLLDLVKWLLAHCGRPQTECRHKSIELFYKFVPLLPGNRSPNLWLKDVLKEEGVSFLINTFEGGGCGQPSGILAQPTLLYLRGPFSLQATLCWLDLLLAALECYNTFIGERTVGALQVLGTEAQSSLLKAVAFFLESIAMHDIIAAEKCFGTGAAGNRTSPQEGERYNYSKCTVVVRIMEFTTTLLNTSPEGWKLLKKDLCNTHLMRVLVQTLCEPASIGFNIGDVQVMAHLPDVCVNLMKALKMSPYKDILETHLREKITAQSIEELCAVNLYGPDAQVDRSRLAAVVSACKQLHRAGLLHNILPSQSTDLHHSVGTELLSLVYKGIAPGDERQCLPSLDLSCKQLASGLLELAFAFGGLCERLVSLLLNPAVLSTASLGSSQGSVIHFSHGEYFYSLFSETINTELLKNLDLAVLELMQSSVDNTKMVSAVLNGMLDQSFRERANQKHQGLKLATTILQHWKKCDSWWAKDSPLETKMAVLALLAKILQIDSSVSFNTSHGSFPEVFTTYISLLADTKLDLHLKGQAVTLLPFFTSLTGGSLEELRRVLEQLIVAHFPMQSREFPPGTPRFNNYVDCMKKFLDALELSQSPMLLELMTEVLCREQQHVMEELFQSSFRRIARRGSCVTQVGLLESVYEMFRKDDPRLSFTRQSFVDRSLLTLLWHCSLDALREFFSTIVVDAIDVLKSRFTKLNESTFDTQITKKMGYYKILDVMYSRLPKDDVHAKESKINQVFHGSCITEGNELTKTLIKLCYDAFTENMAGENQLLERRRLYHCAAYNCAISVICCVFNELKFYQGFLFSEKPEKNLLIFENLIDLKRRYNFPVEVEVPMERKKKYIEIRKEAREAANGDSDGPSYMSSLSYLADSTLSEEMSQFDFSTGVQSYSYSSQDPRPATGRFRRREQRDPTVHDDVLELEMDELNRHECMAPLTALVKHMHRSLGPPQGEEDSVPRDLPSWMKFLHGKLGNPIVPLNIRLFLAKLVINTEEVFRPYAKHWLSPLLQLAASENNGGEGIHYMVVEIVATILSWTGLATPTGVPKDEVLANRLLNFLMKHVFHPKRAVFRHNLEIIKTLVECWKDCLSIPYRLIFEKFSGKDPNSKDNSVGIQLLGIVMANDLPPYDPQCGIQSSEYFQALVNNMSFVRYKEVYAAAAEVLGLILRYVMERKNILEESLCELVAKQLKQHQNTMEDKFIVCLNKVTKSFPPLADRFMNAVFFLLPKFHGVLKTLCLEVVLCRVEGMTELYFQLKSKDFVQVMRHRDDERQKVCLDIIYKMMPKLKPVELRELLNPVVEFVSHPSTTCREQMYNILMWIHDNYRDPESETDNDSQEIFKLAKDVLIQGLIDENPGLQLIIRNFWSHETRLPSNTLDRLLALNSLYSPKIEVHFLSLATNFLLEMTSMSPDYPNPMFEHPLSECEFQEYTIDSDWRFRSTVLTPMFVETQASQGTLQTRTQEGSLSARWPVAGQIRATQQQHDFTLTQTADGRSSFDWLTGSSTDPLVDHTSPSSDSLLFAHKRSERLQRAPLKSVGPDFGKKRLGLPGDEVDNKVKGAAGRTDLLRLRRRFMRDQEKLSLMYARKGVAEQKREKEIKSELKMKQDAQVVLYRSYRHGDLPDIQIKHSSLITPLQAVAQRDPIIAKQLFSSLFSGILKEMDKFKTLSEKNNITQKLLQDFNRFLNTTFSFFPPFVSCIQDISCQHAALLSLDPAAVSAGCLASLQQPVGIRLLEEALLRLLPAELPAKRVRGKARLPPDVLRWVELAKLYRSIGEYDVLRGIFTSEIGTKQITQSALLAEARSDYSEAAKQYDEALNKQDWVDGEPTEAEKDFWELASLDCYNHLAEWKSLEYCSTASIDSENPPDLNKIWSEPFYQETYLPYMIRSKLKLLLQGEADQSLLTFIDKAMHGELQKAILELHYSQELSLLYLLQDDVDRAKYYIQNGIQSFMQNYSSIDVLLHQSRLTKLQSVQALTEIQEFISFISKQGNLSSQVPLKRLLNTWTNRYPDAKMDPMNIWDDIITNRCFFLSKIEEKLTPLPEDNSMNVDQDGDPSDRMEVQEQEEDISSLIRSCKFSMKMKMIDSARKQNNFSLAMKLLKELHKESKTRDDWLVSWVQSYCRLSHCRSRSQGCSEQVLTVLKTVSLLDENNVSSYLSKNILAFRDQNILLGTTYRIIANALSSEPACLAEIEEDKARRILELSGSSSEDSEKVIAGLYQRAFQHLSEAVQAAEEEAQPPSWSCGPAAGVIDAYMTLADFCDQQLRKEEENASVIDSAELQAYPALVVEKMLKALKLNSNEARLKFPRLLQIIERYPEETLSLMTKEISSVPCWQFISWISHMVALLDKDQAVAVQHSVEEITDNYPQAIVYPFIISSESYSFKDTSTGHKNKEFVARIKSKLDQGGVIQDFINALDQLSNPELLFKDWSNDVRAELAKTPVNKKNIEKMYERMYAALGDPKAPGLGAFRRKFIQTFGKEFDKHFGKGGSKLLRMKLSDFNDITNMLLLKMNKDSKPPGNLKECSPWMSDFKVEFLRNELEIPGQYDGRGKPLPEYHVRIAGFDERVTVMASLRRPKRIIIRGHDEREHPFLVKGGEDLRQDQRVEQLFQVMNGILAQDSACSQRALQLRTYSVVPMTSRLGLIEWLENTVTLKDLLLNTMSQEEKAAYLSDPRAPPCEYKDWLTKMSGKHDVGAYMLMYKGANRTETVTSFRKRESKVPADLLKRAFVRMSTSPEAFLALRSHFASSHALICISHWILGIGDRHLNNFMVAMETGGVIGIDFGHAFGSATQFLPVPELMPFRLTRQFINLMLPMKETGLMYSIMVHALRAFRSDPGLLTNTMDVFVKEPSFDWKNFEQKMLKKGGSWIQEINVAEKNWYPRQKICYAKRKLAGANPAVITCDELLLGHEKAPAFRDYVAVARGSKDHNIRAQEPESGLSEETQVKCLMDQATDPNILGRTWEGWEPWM

Target: DNA-PK (Homo sapiens, UniProt P78527)
Test: DNA-PK inhibition assay (standard radiometric 33P-ATP kinase assay)
Assay type: biochemical
Conditions: approx. 6 nM DNA-PK, 100 μM ATP, 45 min, competitive tight-binding fit

| SMILES | Ki | Ki for the inhibition of DNA-PK |
| --- | --- | --- |
| CC(C)(C)C(=O)N[C@H]1CC[C@@H](Oc2cc(N3CCOCC3)cc3nccnc23)CC1 [Compound 83] | < 1 µM |  |
| N#Cc1ccnc(N[C@H]2CC[C@@H](Oc3cc(N4CCOCC4)cc4nccnc34)CC2)c1 [Compound 84] | < 1 µM | less than 0.10 micromolar |
| N#Cc1cccnc1N[C@H]1CC[C@@H](Oc2cc(N3CCOCC3)cc3nccnc23)CC1 [Compound 87] | < 1 µM | less than 0.10 micromolar |
| O=C(O)c1ccnc(N[C@H]2CC[C@@H](Oc3cc(N4CCOCC4)cc4nccnc34)CC2)n1 [Compound 93] | < 1 µM | less than 0.10 micromolar |
| OCc1cnc(N[C@H]2CC[C@@H](Oc3cc(N4CCOCC4)cc4nccnc34)CC2)nc1 [Compound 94] | < 1 µM | less than 0.10 micromolar |
| OC1(C(F)(F)F)CC(N[C@H]2CC[C@@H](Oc3cc(N4CCOCC4)cc4nccnc34)CC2)=NO1 (stereo partly drawn) [Compound 102] | < 1 µM |  |
| Fc1cc(F)nc(N[C@H]2CC[C@@H](Oc3cc(N4CCOCC4)cc4nccnc34)CC2)n1 [Compound 104] | < 1 µM | less than 0.10 micromolar |
| CN(C)C(=O)c1cnc(N[C@H]2CC[C@@H](Oc3cc(N4CCOCC4)cc4nccnc34)CC2)cn1 [Compound 108] | < 1 µM | less than 0.10 micromolar |
| c1cnc2c(O[C@H]3CC[C@@H](Nc4ncc(C5CC5)cn4)CC3)cc(N3CCOCC3)cc2n1 [Compound 109] | < 1 µM | less than 0.10 micromolar |
| Cn1cc(S(=O)(=O)N[C@H]2CC[C@@H](Oc3cc(N4CCOCC4)cc4nccnc34)CC2)cn1 [Compound 124] | < 1 µM |  |
| Cn1nccc1S(=O)(=O)N[C@H]1CC[C@@H](Oc2cc(N3CCOCC3)cc3nccnc23)CC1 [Compound 125] | < 1 µM |  |
| Cn1ccc(S(=O)(=O)N[C@H]2CC[C@@H](Oc3cc(N4CCOCC4)cc4nccnc34)CC2)n1 [Compound 126] | < 1 µM |  |
| COc1cnc(N[C@H]2CC[C@@H](Oc3cc(N4CCOCC4)cc4nccnc34)CC2)nc1 [Compound 134, 5-methoxy-N-((cis)-4-((7-morpholinoquinoxalin-5-yl)oxy)cyclohexyl)pyrimidin-2-amine] | < 1 µM | less than 0.10 micromolar |
| CCOCCc1cnc(N[C@H]2CC[C@@H](Oc3cc(N4CCOCC4)cc4nccnc34)CC2)nc1 [Compound 135] | < 1 µM | less than 0.10 micromolar |
| O=C(O)c1ccc(N[C@H]2CC[C@@H](Oc3cc(N4CCOCC4)cc4nccnc34)CC2)nc1 [Compound 139] | < 1 µM | less than 0.10 micromolar |
| NC(=O)c1ccc(N[C@H]2CC[C@@H](Oc3cc(N4CCOCC4)cc4nccnc34)CC2)nc1 [Compound 140] | < 1 µM | less than 0.10 micromolar |
| Cc1cnc(N[C@H]2CC[C@@H](Oc3cc(N4CCOCC4)cc4nccnc34)CC2)nc1 [Compound 142] | < 1 µM | less than 0.10 micromolar |
| Nc1cnc(N[C@H]2CC[C@@H](Oc3cc(N4CCOCC4)cc4nccnc34)CC2)nc1 [Compound 143] | < 1 µM | less than 0.10 micromolar |
| CNC(=O)c1ccc(N[C@H]2CC[C@@H](Oc3cc(N4CCOCC4)cc4nccnc34)CC2)nc1 [Compound 144] | < 1 µM | less than 0.10 micromolar |
| CN(C)C(=O)c1ccc(N[C@H]2CC[C@@H](Oc3cc(N4CCOCC4)cc4nccnc34)CC2)nc1 [Compound 145] | < 1 µM | less than 0.10 micromolar |
| COC(=O)c1ccc(N[C@H]2CC[C@@H](Oc3cc(N4CCOCC4)cc4nccnc34)CC2)nc1 [Compound 146] | < 1 µM | less than 0.10 micromolar |
| CCN(CC)c1cnc(N[C@H]2CC[C@@H](Oc3cc(N4CCOCC4)cc4nccnc34)CC2)nc1 [Compound 155] | < 1 µM | less than 0.10 micromolar |
